Experiment: Electrochemical switching (Switch: reversible photochromic/electrochromic conversion)
Format: physicochemical
Design: key: Y: “Switch” refers to the ability (yes or no) of the compound to be reversibly converted under photochromic and electrochromic conditions between a ring-open isomer and ring-closed isomer
Conditions: reversibly converted under photochromic and electrochromic conditions

Compound	Switch
CC(C)(C)c1ccc(-c2cc(C3=C(c4cc(-c5ccc(C(C)(C)C)s5)sc4-c4ccc(C(C)(C)C)s4)C(F)(F)C(F)(F)C3(F)F)c(-c3ccc(C(C)(C)C)s3)s2)s1 [S003, 3′,3″″-(perfluorocyclopent-1-ene-1,2-diyl)bis(5,5″-di-tert-butyl-2,2′:5′,2″-terthiophene)]	Y
FC1(F)C(c2cc(-c3ccccc3)sc2-c2ccccc2)=C(c2cc(-c3cccs3)sc2-c2cccs2)C(F)(F)C1(F)F [S005, 3′-(2-(2,5-diphenylthiophen-3-yl)-3,3,4,4,5,5-hexafluorocyclopent-1-en-1-yl)-2,2′:5′,2″-terthiophene]	Y
FC1(F)C(c2cc(-c3ccccc3)sc2-c2ccccc2)=C(c2cc(-c3ccc(Cl)cc3)sc2-c2ccccc2)C(F)(F)C1(F)F [S006, 5-(4-chlorophenyl)-3-(2-(2,5-diphenylthiophen-3-yl)-3,3,4,4,5,5-hexafluorocyclopent-1-en-1-yl)-2-phenylthiophene]	Y
Cc1ccc(-c2cc(C3=C(c4cc(-c5ccc(C)s5)sc4-c4ccc(C)s4)C(F)(F)C(F)(F)C3(F)F)c(-c3ccc(C)s3)s2)s1 [S007, 3′,3″″-(perfluorocyclopent-1-ene-1,2-diyl)bis(5,5″-dimethyl-2,2′:5′,2″-terthiophene)]	Y
Cc1cc(-c2cc(C3=C(c4cc(-c5cc(C)c(C)s5)sc4-c4cc(C)c(C)s4)C(F)(F)C(F)(F)C3(F)F)c(-c3cc(C)c(C)s3)s2)sc1C [S011]	Y
FC1(F)C(c2c(-c3ccccc3)sc3ccccc23)=C(c2c(-c3ccccc3)sc3ccccc23)C(F)(F)C1(F)F [S014, 3,3′-(perfluorocyclopent-1-ene-1,2-diyl)bis(2-phenylbenzo[b]thiophene)]	Y
Cc1c(-c2ccccc2)sc(-c2ccccc2)c1C1=C(c2c(-c3ccccc3)sc(-c3ccccc3)c2C)C(F)(F)C(F)(F)C1(F)F [S017, 4,4′-(perfluorocyclopent-1-ene-1,2-diyl)bis(3-methyl-2,5-diphenylthiophene)]	Y
COc1ccc(-c2cc(C3=C(c4cc(-c5ccc(OC)s5)sc4-c4ccc(OC)s4)C(F)(F)C(F)(F)C3(F)F)c(-c3ccc(OC)s3)s2)s1 [S020, 3′,3″″-(perfluorocyclopent-1-ene-1,2-diyl)bis(5,5″-dimethoxy-2,2′:5′,2″-terthiophene)]	Y
O=C(O)c1ccc(-c2cc(C3=C(c4cc(-c5ccc(C(=O)O)s5)sc4-c4ccc(C(=O)O)s4)C(F)(F)C(F)(F)C3(F)F)c(-c3ccc(C(=O)O)s3)s2)s1 [S024]	Y
FC1(F)C(c2cc(-c3ccc(Cl)s3)sc2-c2ccc(Cl)s2)=C(c2cc(-c3ccc(Cl)s3)sc2-c2ccc(Cl)s2)C(F)(F)C1(F)F [S026, 3′,3″″-(perfluorocyclopent-1-ene-1,2-diyl)bis(5,5″-dichloro-2,2′:5′,2″-terthiophene)]	Y
Cc1ccc(-c2sc(-c3cccs3)cc2C2=C(c3cc(-c4cccs4)sc3-c3ccc(C)s3)C(F)(F)C(F)(F)C2(F)F)s1 [S027, 3′,3″″-(perfluorocyclopent-1-ene-1,2-diyl)bis(5-methyl-2,2′:5′,2″-terthiophene)]	Y
c1ccc(-c2nc(-c3nc(-c4ccccc4)sc3-c3nc(-c4ccccc4)sc3-c3ccccc3)c(-c3ccccc3)s2)cc1 [S032, 2,2′,2″,5,5″-pentaphenyl-4,4′:5′,4″-terthiazole]	Y
Cc1ccc(-c2ccc(-c3cc(C4=C(c5cc(-c6ccc(-c7ccc(C)s7)s6)sc5-c5ccc(C)s5)C(F)(F)C(F)(F)C4(F)F)c(-c4ccc(C)s4)s3)s2)s1 [S034, 3′,3″″′-(perfluorocyclopent-1-ene-1,2-diyl)bis(5,5″′-dimethyl-2,2′:5′,2″:5″,2″′-quaterthiophene)]	Y
FC1(F)C(c2nc(-c3ccccc3)sc2-c2ccccc2)=C(c2nc(-c3ccccc3)sc2-c2ccccc2)C(F)(F)C1(F)F [S035, 4,4′-(perfluorocyclopent-1-ene-1,2-diyl)bis(2,5-diphenylthiazole)]	Y

Reference: patent US10072023B2, “Diarylethene compounds and uses thereof” (SWITCH MATERIALS, INC., priority 2011, dated 2018)
